Among the data in patent publication US5041535A (Richter Gedeon Vegyeszeti Gyar Rt., priority 1986, dated 1991) are isolated yield and step yield values, retold here.

The nature of this series: general procedure: solution-phase peptide synthesis; active ester (OPfp) and/or mixed anhydride.

On to Glp-Lys-NH2, for which the isolated yield (whole synthesis, related to the Lys(Z)-ONB.HCl starting material, acid addition salts) is recorded as 62%.
With Lys-Glu-Lys-Lys-diacetate, under “late stage modification step, diacetate”, the step yield was determined as 88%.
